According to patent US12139764B2, “Systems and methods for characterizing and treating breast cancer” (Arizona Board of Regents on Behalf of the University of …, priority 2018, dated 2024):
At least one structure is not confirmed: it was looked up by name or label, or the drawing left a doubt.

System: SUM159 cells
Experiment: Immunoblot of OPN, mechanical memory extension
Assay type: cell-based

Row | Compound | Immunoblot of OPN (mechanical memory) (7 μM on soft hydrogels for 7 days in phase 2, after stiff- or soft-preconditioning for 7 days in phase 1) | Immunoblot of OPN (mechanical memory) (2.5 μM on soft hydrogels for 7 days in phase 2, after stiff- or soft-preconditioning for 7 days in phase 1)
1 | Nc1ncn([C@H]2C[C@H](O)[C@@H](CO)O2)c(=O)n1 [decitabine] | memory extension | 
2 | CC(=O)c1c(C)c2cnc(Nc3ccc(N4CCNCC4)cn3)nc2n(C2CCCC2)c1=O [palbociclib] |  | memory extension
